The other results are listed elsewhere or left out. Most values lie at the level of the controls, where differences are scatter.

By UniProt entry, the sequences of proteins in these tests, tags left out. Where a name states a change or a piece, a line headed by the entry shows the natural chain unless it says otherwise.
UniProt P30115: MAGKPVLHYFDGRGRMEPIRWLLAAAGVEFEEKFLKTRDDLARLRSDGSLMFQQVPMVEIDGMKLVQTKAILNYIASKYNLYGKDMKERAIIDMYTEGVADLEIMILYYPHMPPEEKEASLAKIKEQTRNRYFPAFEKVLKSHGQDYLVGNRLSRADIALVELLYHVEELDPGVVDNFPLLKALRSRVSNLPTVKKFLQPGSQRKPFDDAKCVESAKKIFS
UniProt P21614: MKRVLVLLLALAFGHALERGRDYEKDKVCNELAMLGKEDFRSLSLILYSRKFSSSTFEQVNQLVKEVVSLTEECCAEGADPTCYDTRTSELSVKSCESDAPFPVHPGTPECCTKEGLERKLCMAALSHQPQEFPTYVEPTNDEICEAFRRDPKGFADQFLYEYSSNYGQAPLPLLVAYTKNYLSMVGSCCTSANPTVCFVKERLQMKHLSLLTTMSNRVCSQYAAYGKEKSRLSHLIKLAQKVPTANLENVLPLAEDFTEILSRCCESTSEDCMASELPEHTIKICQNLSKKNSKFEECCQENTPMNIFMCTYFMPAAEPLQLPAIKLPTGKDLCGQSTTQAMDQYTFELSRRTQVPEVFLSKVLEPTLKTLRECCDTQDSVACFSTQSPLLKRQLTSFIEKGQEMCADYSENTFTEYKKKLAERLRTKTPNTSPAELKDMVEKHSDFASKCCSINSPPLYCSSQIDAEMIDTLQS
UniProt P23506: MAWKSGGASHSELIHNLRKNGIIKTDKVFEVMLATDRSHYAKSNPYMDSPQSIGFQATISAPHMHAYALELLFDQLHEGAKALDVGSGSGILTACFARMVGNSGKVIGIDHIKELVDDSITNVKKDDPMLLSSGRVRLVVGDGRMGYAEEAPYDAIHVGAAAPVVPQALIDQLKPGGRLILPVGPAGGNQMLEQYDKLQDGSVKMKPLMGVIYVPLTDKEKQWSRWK
UniProt P28705: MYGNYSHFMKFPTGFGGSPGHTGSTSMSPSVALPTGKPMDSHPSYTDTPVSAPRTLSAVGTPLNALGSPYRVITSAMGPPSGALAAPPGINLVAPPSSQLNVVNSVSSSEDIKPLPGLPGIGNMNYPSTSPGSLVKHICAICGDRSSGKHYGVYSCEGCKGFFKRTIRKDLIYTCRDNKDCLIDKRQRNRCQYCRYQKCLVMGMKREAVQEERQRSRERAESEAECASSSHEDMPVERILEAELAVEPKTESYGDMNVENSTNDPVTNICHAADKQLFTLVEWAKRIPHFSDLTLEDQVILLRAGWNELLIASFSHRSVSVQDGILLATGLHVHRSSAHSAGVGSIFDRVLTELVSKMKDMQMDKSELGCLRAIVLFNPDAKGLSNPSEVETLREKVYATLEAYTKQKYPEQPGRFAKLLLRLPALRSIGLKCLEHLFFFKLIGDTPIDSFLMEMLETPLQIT
UniProt P28271: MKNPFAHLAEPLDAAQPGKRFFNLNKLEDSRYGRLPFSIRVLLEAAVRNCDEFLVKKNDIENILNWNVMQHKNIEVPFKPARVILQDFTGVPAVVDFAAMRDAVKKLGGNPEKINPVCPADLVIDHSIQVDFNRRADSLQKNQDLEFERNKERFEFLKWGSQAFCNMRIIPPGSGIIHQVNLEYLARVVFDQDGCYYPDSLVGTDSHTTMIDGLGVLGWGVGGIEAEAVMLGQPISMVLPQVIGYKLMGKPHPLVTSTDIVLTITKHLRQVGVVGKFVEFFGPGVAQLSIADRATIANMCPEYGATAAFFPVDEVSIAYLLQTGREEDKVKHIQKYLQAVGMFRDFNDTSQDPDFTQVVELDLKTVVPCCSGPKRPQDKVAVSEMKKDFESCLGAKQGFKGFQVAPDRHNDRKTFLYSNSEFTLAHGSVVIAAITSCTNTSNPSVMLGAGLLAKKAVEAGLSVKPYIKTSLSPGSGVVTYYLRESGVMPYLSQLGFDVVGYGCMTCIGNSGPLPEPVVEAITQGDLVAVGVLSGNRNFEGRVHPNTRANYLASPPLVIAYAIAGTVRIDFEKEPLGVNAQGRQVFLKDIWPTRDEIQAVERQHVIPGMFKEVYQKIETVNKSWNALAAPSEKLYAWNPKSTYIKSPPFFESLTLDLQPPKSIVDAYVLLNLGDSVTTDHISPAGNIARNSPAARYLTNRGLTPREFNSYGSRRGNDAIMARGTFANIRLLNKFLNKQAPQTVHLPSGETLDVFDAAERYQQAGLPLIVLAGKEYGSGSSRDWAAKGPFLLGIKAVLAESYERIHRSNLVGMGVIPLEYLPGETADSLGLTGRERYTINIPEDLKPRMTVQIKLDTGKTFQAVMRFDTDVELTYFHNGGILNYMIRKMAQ
UniProt P19783: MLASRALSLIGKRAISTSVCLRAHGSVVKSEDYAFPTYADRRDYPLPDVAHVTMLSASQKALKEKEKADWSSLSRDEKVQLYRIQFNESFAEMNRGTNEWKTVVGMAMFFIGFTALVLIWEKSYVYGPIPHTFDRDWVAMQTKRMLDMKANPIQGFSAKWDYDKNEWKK
UniProt P19221, whole entry: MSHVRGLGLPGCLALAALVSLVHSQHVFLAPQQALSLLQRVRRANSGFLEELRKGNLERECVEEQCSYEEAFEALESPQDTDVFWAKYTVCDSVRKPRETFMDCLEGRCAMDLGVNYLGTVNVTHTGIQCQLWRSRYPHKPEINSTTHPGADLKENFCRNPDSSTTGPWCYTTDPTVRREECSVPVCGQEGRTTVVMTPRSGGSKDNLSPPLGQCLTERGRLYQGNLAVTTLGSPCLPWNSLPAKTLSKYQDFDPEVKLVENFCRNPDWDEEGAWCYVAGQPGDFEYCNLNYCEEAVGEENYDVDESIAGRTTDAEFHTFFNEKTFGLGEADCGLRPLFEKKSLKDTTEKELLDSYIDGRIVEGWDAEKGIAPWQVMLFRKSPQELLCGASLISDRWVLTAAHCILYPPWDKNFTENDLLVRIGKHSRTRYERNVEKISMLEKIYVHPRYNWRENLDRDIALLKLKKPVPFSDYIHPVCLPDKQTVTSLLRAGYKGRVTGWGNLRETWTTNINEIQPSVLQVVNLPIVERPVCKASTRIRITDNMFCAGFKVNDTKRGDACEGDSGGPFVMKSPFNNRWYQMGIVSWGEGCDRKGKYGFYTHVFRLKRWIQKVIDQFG
UniProt P16015: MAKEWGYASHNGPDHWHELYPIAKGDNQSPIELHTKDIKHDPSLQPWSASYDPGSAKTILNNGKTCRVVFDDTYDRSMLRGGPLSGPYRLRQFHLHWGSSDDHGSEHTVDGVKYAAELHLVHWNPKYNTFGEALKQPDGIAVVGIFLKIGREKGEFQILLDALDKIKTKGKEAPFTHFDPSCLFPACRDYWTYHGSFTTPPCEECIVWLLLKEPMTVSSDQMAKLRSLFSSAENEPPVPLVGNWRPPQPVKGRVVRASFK
UniProt P21278: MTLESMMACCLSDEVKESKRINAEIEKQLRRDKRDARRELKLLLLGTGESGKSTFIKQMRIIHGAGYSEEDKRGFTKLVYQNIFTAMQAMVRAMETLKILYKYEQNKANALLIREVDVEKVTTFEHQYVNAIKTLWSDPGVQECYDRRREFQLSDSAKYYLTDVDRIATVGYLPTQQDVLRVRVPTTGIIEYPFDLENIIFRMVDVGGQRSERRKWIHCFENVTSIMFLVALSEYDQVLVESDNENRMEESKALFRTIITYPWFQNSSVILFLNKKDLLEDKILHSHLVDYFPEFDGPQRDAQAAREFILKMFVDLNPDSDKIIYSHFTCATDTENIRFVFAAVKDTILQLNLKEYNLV
UniProt P20918, whole entry: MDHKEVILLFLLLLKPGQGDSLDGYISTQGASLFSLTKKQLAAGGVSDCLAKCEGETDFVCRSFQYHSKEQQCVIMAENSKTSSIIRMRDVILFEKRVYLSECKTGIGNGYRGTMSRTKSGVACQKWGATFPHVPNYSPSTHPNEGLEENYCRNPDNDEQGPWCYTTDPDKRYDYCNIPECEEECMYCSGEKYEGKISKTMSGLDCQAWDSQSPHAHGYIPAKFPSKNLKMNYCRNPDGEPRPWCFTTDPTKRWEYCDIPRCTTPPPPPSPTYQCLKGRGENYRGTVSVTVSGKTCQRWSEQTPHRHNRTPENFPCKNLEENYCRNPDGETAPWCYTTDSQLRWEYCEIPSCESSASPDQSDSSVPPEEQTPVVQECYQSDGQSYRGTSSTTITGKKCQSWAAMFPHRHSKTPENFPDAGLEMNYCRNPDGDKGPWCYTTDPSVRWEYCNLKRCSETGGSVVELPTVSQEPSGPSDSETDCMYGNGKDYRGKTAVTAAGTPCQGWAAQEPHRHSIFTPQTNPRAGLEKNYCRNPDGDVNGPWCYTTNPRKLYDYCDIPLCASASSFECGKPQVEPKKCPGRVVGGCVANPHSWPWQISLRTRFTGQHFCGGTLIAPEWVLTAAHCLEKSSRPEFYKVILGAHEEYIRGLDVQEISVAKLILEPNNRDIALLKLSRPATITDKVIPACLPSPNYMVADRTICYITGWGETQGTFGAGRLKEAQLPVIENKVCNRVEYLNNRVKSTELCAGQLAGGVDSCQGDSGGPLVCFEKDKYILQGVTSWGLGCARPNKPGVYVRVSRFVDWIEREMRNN
UniProt P26323: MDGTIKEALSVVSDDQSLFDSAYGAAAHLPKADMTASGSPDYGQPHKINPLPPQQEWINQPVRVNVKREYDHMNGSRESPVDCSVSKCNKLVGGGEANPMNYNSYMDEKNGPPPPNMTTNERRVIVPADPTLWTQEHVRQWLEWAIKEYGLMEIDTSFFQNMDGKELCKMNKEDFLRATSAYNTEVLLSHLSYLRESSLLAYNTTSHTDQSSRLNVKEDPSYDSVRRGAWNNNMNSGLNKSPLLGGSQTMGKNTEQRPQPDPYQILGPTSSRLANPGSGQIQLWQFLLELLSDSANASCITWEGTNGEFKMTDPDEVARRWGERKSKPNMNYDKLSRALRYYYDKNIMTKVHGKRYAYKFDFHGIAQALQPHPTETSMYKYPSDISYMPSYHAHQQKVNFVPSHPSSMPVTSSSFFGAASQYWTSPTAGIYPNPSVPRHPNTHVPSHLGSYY
UniProt P33267: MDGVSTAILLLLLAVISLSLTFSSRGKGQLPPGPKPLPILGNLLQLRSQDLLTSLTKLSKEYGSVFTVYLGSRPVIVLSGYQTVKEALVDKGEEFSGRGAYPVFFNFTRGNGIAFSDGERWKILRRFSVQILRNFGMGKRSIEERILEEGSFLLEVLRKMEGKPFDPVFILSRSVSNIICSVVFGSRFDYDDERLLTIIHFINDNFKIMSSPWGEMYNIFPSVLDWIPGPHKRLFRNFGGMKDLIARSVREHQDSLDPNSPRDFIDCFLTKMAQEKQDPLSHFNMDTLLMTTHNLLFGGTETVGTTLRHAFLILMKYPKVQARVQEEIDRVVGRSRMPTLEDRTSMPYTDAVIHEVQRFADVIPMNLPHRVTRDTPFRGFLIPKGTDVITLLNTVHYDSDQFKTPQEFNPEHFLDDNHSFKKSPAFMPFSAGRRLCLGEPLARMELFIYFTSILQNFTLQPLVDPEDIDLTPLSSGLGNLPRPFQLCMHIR
UniProt P24452: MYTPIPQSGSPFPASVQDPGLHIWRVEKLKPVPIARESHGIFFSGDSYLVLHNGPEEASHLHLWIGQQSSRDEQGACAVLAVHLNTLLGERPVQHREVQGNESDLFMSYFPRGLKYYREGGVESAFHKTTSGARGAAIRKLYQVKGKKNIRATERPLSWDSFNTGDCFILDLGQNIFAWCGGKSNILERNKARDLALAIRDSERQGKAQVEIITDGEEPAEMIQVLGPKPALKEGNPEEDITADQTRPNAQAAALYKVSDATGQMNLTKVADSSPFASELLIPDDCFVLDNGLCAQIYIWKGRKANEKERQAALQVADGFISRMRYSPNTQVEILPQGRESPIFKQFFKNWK
UniProt P29533: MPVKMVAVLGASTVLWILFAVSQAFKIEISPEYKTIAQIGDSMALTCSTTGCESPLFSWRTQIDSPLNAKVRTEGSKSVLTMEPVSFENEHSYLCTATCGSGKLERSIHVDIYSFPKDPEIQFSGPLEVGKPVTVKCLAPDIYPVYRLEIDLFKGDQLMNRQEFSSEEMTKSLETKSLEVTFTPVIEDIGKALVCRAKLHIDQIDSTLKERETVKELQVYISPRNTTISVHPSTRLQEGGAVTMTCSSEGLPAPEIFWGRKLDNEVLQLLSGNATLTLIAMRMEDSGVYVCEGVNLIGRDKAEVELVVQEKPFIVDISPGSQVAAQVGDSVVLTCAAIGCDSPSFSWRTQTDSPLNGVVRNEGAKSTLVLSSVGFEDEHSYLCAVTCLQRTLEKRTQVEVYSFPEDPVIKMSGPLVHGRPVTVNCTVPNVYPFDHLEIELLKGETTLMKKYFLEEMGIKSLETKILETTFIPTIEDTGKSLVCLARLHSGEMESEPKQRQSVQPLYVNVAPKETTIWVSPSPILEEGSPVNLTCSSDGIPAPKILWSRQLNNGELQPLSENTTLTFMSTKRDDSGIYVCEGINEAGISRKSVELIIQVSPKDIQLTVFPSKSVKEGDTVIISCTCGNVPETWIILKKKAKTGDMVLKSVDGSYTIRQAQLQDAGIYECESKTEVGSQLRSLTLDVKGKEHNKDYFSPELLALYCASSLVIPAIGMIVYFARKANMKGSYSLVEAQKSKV

Compound in this experiment: CN[C@@H]1C[C@H]2O[C@@](C)([C@@H]1OC)n1c3ccccc3c3c4c(c5c6ccccc6n2c5c31)C(=O)NC4 [staurosporine]
As to the kind of experiment: log2 fold change of tryptic peptide abundance, ligand vs vehicle (limited proteolysis) (log2 ratio); higher = more trypsin-susceptible (destabilized). Conditions: ligand concentration: 20 uM; sample: mouse liver crude lysate; replicate design: treated separately.
On to “UniProt P30115 (peptide sequence: AILNYIASK, peptide start residue: 70)”, for which the log2 fold change amounted to 0.167. As for “UniProt P21614 (peptide sequence: HLSLLTTMSNR, peptide start residue: 208)”, the figure is 0.244. As for “UniProt P21619 (peptide sequence: ALELENDR, peptide start residue: 44)”, the log2 fold change is -0.108.

As to “UniProt P35276 (peptide sequence: TITTAYYR, peptide start residue: 72)”, the log2 fold change was -0.0745. As to “UniProt P23506 (peptide sequence: MKPLMGVIYVPLTDKEK, peptide start residue: 205)”, the log2 fold change was -0.204. “UniProt P17809 (peptide sequence: LRGTADVTR, peptide start residue: 231)”: the log2 fold change was -0.448. On to “UniProt P28352 (peptide sequence: AAADDGEEPKSEPETK, peptide start residue: 8)”, for which the log2 fold change was determined as 0.152. As for “UniProt P26187 (peptide sequence: SSFESTSSEPSGR, peptide start residue: 198)”, the figure is 0.472. In the case of “UniProt P18572 (peptide sequence: GSGTHMNDKDKNVR, peptide start residue: 371)”, the log2 fold change was -0.422. Turning to “UniProt P17932 (peptide sequence: FKGQILMPNIGYR, peptide start residue: 49)”, the log2 fold change is 0.0922. Turning to “UniProt P28658 (peptide sequence: VEQDSLLTAFR, peptide start residue: 123)”, the log2 fold change turned out to be 0.326. As for “UniProt P28705 (peptide sequence: SSAHSAGVGSIFDR, peptide start residue: 336)”, the log2 fold change came to 0.427. Consider “UniProt P24063 (peptide sequence: DMGCLEPLRESDKD, peptide start residue: 1149)”, for which the log2 fold change was -0.395.

As to “UniProt P35279 (peptide sequence: SLIPSYIR, peptide start residue: 77)”, the log2 fold change was -0.101. Turning to “UniProt P28271 (peptide sequence: EVYQKIETVNK, peptide start residue: 611)”, the log2 fold change is -0.433. On to “UniProt P19783 (peptide sequence: ANPIQGFSAK, peptide start residue: 150)”, for which the log2 fold change is -0.231. For the target “UniProt P19221 (peptide sequence: RGDACEGDSGGPFVMK, peptide start residue: 557)”, the log2 fold change is -0.889. For “UniProt P28738 (peptide sequence: ILQDSLGGNCR, peptide start residue: 285)”, the log2 fold change is 0.0983.

For “UniProt P16015 (peptide sequence: EPMTVSSDQMAK, peptide start residue: 213)”, the log2 fold change was 0.484. As to “UniProt P21278 (peptide sequence: VTTFEHQYVNAIK, peptide start residue: 121)”, the log2 fold change was -0.774.

For the target “UniProt P27612 (peptide sequence: TVNIYFPK, peptide start residue: 530)”, the log2 fold change was -0.281.

As for “UniProt P22893 (peptide sequence: RDPNQACCPSCR, peptide start residue: 235)”, the log2 fold change is -0.244. “UniProt P32067 (peptide sequence: VLEGHAEKEALKK, peptide start residue: 304)”: the log2 fold change was found to be 0.159.

With “UniProt P20918 (peptide sequence: KQLAAGGVSDCLAKCEGETDFVCR, peptide start residue: 39)”, the log2 fold change is -0.463. With “UniProt P28666 (peptide sequence: YASAEHVAYAVYSLSK, peptide start residue: 431)”, the log2 fold change is -0.454. Consider “UniProt P33242 (peptide sequence: KAQIRANGFK, peptide start residue: 110)”, for which the log2 fold change was -0.129.

For the target “UniProt P26516 (peptide sequence: TFEHVTSEIGAEEAEEVGVEHLLR, peptide start residue: 154)”, the log2 fold change is -0.279. Consider “UniProt P26323 (peptide sequence: ESPVDCSVSK, peptide start residue: 78)”, for which the log2 fold change is -0.288. Turning to “UniProt P29452 (peptide sequence: LQMPTADRVTLTK, peptide start residue: 382)”, the log2 fold change is -0.226. With “UniProt P20357 (peptide sequence: SGILVPSEK, peptide start residue: 1635)”, the log2 fold change was -0.192. As to “UniProt P22892 (peptide sequence: YVALTSLLK, peptide start residue: 326)”, the log2 fold change was -0.609. Take “UniProt P33267 (peptide sequence: SQDLLTSLTK, peptide start residue: 48)”: the log2 fold change was determined as 0.2. On to “UniProt P28571 (peptide sequence: DWGPALLEHR, peptide start residue: 639)”, for which the log2 fold change is 0.257. As to “UniProt P28654 (peptide sequence: VPAGLAQHK, peptide start residue: 279)”, the log2 fold change is -0.244.

As for “UniProt P24452 (peptide sequence: EGGVESAFHK, peptide start residue: 119)”, the log2 fold change was -0.243. As for “UniProt P20029 (peptide sequence: NKITITNDQNR, peptide start residue: 523)”, the figure is -0.907; as for “UniProt P17879 (peptide sequence: MDKAQIHDLVLVGGSTR, peptide start residue: 326)”, 0.615.

On to “UniProt P29533 (peptide sequence: SVDGSYTIR, peptide start residue: 648)”, for which the log2 fold change came to 0.2. On to “UniProt P27546 (peptide sequence: VSYSHIQSKCGSKDNIK, peptide start residue: 972)”, for which the log2 fold change worked out at 1.03.

The record behind these values is the supplement of paper PMC12819154, “High-throughput peptide-centric local stability assay extends protein–ligand identification to membrane proteins, tissues and bacteria” (Nature Structural & Molecular Biology, 2025).
